For at least one compound, name, drawing or mass did not settle the structure.
Columns and labels:
[1] = system: MMP 8; conditions: in vivo, cartilage, animal models and humans; cited from earlier work
[2] = system: MMP 13; conditions: in vivo, cartilage, animal models and humans; cited from earlier work
[3] = system: chondrocytes in cartilage plugs; assay: Resazurin reduction metabolic assay of chondrocyte viability in hypothermically stored cartilage plugs; type: cell-based, porcine; conditions: 4° C.
[4] = system: MMP 9; conditions: in vivo, cartilage, animal models and humans; cited from earlier work

C[C@H]1c2cccc(O)c2C(=O)C2=C(O)[C@]3(O)C(=O)C(C(N)=O)=C(O)[C@@H](N(C)C)[C@@H]3[C@@H](O)[C@@H]21 [doxycycline]
MMP 8 activity [1]: reducing MMP 8, 9, and 13 activity
MMP 13 activity [2]: reducing MMP 8, 9, and 13 activity
cartilage cell viability of 10 μM group versus other groups ([3]; 10 μM doxycycline in DMEM, week 2-4, p<0.05): significantly higher than all other groups
cartilage cell viability, dependence on doxycycline concentration ([3]; DMEM with 10, 30, 100, 300 uM doxycycline, week 0 to week 4, n=4): impacted by the presence of doxycycline in a dose dependent manner
MMP 9 activity [4]: reducing MMP 8, 9, and 13 activity
